Source: patent US20030166014A1
No constants are given. Whether binding was seen depends on the method and setting. Some entries that bind do so weakly or less than the wild type.

Chains of the proteins cited; added tags and fusions are not shown. Lines headed by an entry give the natural chain unless they say otherwise; changes in a name come on top. A line that says so, or that is headed by a name, gives the form on record, which may keep a tag or linker.
recombinant peritoneal Hp (rpHp) 2-2 (P00738, form named): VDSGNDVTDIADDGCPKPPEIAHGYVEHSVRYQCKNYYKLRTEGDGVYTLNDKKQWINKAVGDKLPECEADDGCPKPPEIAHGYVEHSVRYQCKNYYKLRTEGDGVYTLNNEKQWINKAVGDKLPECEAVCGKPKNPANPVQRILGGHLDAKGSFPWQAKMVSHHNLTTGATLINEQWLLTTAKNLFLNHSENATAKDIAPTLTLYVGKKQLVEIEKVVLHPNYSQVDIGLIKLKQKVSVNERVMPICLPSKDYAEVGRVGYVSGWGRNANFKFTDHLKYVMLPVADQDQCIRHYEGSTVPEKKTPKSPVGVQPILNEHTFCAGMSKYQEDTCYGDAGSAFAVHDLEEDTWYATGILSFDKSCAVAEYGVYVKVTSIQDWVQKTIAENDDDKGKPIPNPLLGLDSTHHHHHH

Legend:
[1] = molecular target: T1, Lotus tetragonolobus lectin (LTL) (Lotus tetragonolobus) (UniProt P19664); test: lectin ELISA
T1 sequence (looked up): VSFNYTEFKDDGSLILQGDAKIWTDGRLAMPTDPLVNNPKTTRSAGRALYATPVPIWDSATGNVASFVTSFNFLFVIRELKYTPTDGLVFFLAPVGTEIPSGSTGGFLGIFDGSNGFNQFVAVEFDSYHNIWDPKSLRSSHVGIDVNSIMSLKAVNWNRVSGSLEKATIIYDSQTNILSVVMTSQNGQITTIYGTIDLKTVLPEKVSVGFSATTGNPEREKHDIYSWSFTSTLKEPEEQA

[2] = molecular target: T1, Lotus tetragonolobus lectin (LTL) (Lotus tetragonolobus); test: lectin binding studies (ELISA and blotting), compared with sHp
[3] = molecular target: T1, Lotus tetragonolobus lectin (LTL) (Lotus tetragonolobus); test: lectin-blotting analysis

binding [1]: binds
binding [2]: binds
binding [3]: binds
Substance: recombinant peritoneal Hp (rpHp) 2-2 (from UniProt P00738 19-406)
